Laboratory results published in the supplement of paper PMC6078165.
± gives the standard deviation of the averaged measurements. The reference is the same well before dosing, and untreated signal decays as well.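 Labels refer to human fibroblasts, largely primary: uterine (C12385, HUF), lung (H6013), bone (Hs27A), adrenal (HADF), skin (WS1), plus mammary HMF and breast cancer-associated Hs343T. Cancer lines are basal-like or mesenchymal-like triple-negative breast cancer. The paper counts as hits responses shifting over 3x the replicate standard deviation. The tissue of the other fibroblasts is not given here.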

Tested on: MDAMB436
Experiment: relative JC-1 red fluorescence (viability) vs pre-drug, coculture with fibroblast (fraction); higher = more viable cancer cells
Conditions: 100 µM
Experimental: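 JC-1 labelled TNBC cells cocultured 1:1 (1,500 cells each) with CellTrace Violet stained primary or stromal fibroblasts in 384-well plates in FluoroBrite medium, treated with one of 42 anticancer drugs at 0.1, 1, 10 or 100 uM. JC-1 red fluorescence (mitochondrial integrity in cancer cells only) was read by plate reader every 8 h for 72 h. Values are normalised to each well's pre-drug value. The stock of one drug was tenfold lower, so its dose labels may be too high.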

CS(=O)(=O)CCNCc1ccc(-c2ccc3ncnc(Nc4ccc(OCc5cccc(F)c5)c(Cl)c4)c3c2)o1 [Lapatinib]
relative JC-1 red fluorescence
Conditions | 8 h | 16 h | 24 h | 32 h | 40 h | 48 h | 56 h | 64 h | 72 h
coculture fibroblast: C12385 | 0.872 ± 0.097 | 0.836 ± 0.075 | 0.77204 ± 0.00072 | 0.721 ± 0.04 | 0.688 ± 0.035 | 0.738 ± 0.14 | 0.662 ± 0.071 | 0.709 ± 0.17 | 0.65 ± 0.11
coculture fibroblast: H6013 | 0.9056 ± 0.0029 | 0.848 ± 0.011 | 0.841 ± 0.0099 | 0.831 ± 0.025 | 0.836 ± 0.017 | 0.859 ± 0.01 | 0.8377 ± 0.0069 | 0.818 ± 0.014 | 0.77 ± 0.029
coculture fibroblast: H6019 | 0.801 ± 0.023 | 0.778 ± 0.03 | 0.757 ± 0.015 | 0.693 ± 0.011 | 0.6638 ± 0.0065 | 0.6452 ± 0.002 | 0.603 ± 0.0061 | 0.571 ± 0.014 | 0.537 ± 0.021
coculture fibroblast: H6076 | 0.973 ± 0.035 | 0.904 ± 0.094 | 0.873 ± 0.12 | 0.832 ± 0.11 | 0.773 ± 0.12 | 0.727 ± 0.1 | 0.7 ± 0.09 | 0.665 ± 0.084 | 0.642 ± 0.061
coculture fibroblast: H6231 | 0.827 ± 0.1 | 0.859 ± 0.07 | 0.774 ± 0.015 | 0.881 ± 0.059 | 0.816 ± 0.035 | 0.85 ± 0.099 | 0.836 ± 0.022 | 0.809 ± 0.027 | 0.832 ± 0.11
coculture fibroblast: HADF | 0.877 ± 0.0027 | 0.855 ± 0.073 | 0.85 ± 0.088 | 0.829 ± 0.097 | 0.825 ± 0.1 | 0.843 ± 0.096 | 0.781 ± 0.098 | 0.774 ± 0.1 | 0.719 ± 0.1
coculture fibroblast: HCFa | 0.90724 ± 0.00061 | 0.912 ± 0.11 | 0.81 ± 0.029 | 0.798 ± 0.073 | 0.708 ± 0.022 | 0.755 ± 0.089 | 0.66 ± 0.057 | 0.726 ± 0.18 | 0.704 ± 0.22
coculture fibroblast: HCPF | 0.9328 ± 0.0029 | 0.8888 ± 0.0014 | 0.876 ± 0.0051 | 0.8481 ± 0.0079 | 0.766 ± 0.093 | 0.847 ± 0.04 | 0.793 ± 0.022 | 0.863 ± 0.056 | 0.8307 ± 0.0057
coculture fibroblast: HHSteC | 0.845 ± 0.028 | 0.837 ± 0.055 | 0.827 ± 0.071 | 0.79 ± 0.091 | 0.78 ± 0.1 | 0.787 ± 0.1 | 0.731 ± 0.11 | 0.702 ± 0.11 | 0.644 ± 0.097
coculture fibroblast: HMF | 0.856 ± 0.057 | 0.781 ± 0.033 | 0.859 ± 0.077 | 0.828 ± 0.081 | 0.793 ± 0.072 | 0.7063 ± 0.0026 | 0.721 ± 0.052 | 0.773 ± 0.14 | 0.738 ± 0.12
coculture fibroblast: HPFa | 0.926 ± 0.02 | 0.874 ± 0.03 | 0.855 ± 0.025 | 0.794 ± 0.038 | 0.782 ± 0.034 | 0.781 ± 0.039 | 0.694 ± 0.035 | 0.66 ± 0.033 | 0.579 ± 0.033
coculture fibroblast: HUF | 0.887 ± 0.011 | 0.808 ± 0.038 | 0.806 ± 0.053 | 0.736 ± 0.056 | 0.683 ± 0.069 | 0.653 ± 0.078 | 0.628 ± 0.094 | 0.609 ± 0.097 | 0.603 ± 0.1
coculture fibroblast: Hs5 | 0.874 ± 0.019 | 0.786 ± 0.049 | 0.764 ± 0.055 | 0.715 ± 0.047 | 0.691 ± 0.064 | 0.662 ± 0.087 | 0.645 ± 0.094 | 0.64 ± 0.11 | 0.619 ± 0.12
coculture fibroblast: Hs27A | 0.8919 ± 0.0064 | 0.8069 ± 0.0079 | 0.801 ± 0.0033 | 0.7649 ± 0.0055 | 0.723 ± 0.014 | 0.765 ± 0.025 | 0.67 ± 0.026 | 0.65 ± 0.027 | 0.575 ± 0.031
coculture fibroblast: Hs343T | 0.884 ± 0.04 | 0.911 ± 0.094 | 0.888 ± 0.099 | 0.872 ± 0.16 | 0.849 ± 0.18 | 0.829 ± 0.2 | 0.807 ± 0.23 | 0.797 ± 0.23 | 0.803 ± 0.26
coculture fibroblast: WS1 | 0.812 ± 0.028 | 0.755 ± 0.011 | 0.7453 ± 0.0014 | 0.6717 ± 0.005 | 0.62177 ± 0.00041 | 0.5921 ± 0.003 | 0.5755 ± 0.0015 | 0.541 ± 0.0002 | 0.5192 ± 0.0032
